These results are taken from publication doi:10.1101/2020.07.09.194902.

By UniProt entry, the sequences of proteins in these tests, tags left out.
UniProt Q03195: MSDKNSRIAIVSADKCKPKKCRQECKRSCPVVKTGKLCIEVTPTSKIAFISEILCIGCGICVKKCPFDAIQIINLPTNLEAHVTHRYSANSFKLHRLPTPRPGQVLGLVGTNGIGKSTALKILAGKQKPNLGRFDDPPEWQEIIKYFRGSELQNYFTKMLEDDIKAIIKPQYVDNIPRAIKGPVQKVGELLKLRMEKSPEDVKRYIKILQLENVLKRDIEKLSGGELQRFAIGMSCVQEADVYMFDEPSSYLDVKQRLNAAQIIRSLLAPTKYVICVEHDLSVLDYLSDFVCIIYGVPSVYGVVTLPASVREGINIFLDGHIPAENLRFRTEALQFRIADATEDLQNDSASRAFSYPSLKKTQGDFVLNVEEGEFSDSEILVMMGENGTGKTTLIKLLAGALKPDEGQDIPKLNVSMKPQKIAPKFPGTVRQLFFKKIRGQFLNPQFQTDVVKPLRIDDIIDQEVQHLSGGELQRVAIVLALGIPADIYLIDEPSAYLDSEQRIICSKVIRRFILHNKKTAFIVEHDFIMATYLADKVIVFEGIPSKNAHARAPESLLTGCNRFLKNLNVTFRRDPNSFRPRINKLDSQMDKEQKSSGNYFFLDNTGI
UniProt Q05775: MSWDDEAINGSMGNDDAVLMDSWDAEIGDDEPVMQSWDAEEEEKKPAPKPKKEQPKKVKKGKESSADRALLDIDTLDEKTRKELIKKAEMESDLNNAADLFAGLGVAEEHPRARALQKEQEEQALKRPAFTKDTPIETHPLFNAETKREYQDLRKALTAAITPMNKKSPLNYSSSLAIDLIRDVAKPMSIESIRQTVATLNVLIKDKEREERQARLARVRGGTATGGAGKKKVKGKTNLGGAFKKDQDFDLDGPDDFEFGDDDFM

The target in this assay is TAP-tagged ABCE1 (Rli1p) (S. cerevisiae) (UniProt Q03195). As to the kind of experiment: affinity purification with mass spectrometry.

Results are given in words; binding and its absence hold for the method and conditions named. Binding seen in cells or lysates may run through a third protein. A yes stands for co-enrichment or nearness to the bait. Other partners may have been found.

On to “eIF3j (Hcr1 in yeast) (from UniProt Q05775 1-265)”, for which the binding entry was “binds”.
